Three molecules from publication PMC4109846 can be followed below.

Test [1] concerns the target T1, ARID1 (AT-Rich Interacting Domain-containing protein 1), full length cDNA in pGBT9 (Arabidopsis thaliana) (UniProt Q84JT7).
T1 sequence: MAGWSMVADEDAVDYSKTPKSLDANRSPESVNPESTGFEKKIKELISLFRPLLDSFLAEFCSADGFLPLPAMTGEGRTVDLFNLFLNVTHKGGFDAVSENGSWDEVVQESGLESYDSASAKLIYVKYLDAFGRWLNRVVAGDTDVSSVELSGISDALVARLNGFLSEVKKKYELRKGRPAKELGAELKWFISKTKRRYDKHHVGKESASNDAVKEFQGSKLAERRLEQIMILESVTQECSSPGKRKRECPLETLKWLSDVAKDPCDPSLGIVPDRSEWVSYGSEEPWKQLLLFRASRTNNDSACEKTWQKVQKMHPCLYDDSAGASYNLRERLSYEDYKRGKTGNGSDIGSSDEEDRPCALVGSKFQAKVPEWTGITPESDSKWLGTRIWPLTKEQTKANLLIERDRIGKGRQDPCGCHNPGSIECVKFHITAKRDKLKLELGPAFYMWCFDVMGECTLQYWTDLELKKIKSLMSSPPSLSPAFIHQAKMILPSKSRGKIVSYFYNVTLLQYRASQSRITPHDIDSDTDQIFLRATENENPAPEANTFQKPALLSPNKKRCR
Description: two-hybrid; yeast strain AH109; ARID1 or ARID1-C in pGBT9, HDA8 in pGAD10; medium lacking leucine, tryptophan and histidine with 10 mM 3-amino-1,2,4-triazole; 2-4 d at 28°C.

In test [2] the target is T2, ARID1-Myc (Arabidopsis thaliana) (UniProt Q84JT7).
T2 sequence: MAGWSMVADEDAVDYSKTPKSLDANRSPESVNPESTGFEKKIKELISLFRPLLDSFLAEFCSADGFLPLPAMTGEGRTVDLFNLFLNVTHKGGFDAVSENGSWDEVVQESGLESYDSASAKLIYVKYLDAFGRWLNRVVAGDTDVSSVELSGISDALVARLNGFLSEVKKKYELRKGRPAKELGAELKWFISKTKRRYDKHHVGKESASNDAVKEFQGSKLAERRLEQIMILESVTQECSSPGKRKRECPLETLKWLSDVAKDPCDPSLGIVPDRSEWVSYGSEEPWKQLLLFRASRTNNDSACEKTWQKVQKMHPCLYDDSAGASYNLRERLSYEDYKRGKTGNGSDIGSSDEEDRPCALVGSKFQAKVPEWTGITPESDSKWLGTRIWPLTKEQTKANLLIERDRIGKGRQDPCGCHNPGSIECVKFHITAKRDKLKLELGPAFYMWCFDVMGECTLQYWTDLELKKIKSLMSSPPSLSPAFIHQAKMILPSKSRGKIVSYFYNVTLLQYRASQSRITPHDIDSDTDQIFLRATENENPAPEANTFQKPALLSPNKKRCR
Nature of the test: co-IP; inflorescence lysate of ARID1-Myc; HDA8-YFP doubly transgenic plants; Myc antibodies on protein G agarose; 50 mM Tris-HCl pH 7.5, 150 mM NaCl, 0.2% NP-40, 2 mM DTT, 10% glycerol; 2 h at 4°C; anti-Myc and anti-GFP immunoblot. A general note: In western blotting, separated proteins are transferred to a membrane and probed.

The target in test [3] is T3, GST-HDA8 (full length HDA8 fused to GST) (Arabidopsis thaliana) (UniProt Q94EJ2).
T3 sequence: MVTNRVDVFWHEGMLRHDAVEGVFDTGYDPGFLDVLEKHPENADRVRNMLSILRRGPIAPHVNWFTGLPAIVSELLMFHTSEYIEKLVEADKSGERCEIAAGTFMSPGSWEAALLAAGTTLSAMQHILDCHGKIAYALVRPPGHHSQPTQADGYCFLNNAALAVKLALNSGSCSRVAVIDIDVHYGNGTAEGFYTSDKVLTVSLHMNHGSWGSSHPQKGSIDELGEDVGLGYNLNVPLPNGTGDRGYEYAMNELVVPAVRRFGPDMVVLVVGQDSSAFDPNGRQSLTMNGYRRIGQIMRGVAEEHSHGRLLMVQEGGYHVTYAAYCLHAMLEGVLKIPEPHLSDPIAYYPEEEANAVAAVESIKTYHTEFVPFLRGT
Description: pull-down; GST or GST-HDA8 on glutathione Sepharose 4B beads (30 µg total protein); 600 µl protein extract from inflorescences of ARID1-GFP plants; 2 h at 4°C; washed 5 times with IP lysis buffer; anti-GFP immunoblot; only the target purified.

These are yes or no findings as the source states them, for the method shown. For part of these data: In cells and extracts the contact can be indirect. Some entries that bind do so weakly or less than the wild type. Tags and fused reporters may be left off the sequences shown.

B1: HDA8 (Histone Deacetylase 8), full length cDNA in pGAD10 (enzyme, UniProt Q94EJ2 1-377)
chain: MVTNRVDVFWHEGMLRHDAVEGVFDTGYDPGFLDVLEKHPENADRVRNMLSILRRGPIAPHVNWFTGLPAIVSELLMFHTSEYIEKLVEADKSGERCEIAAGTFMSPGSWEAALLAAGTTLSAMQHILDCHGKIAYALVRPPGHHSQPTQADGYCFLNNAALAVKLALNSGSCSRVAVIDIDVHYGNGTAEGFYTSDKVLTVSLHMNHGSWGSSHPQKGSIDELGEDVGLGYNLNVPLPNGTGDRGYEYAMNELVVPAVRRFGPDMVVLVVGQDSSAFDPNGRQSLTMNGYRRIGQIMRGVAEEHSHGRLLMVQEGGYHVTYAAYCLHAMLEGVLKIPEPHLSDPIAYYPEEEANAVAAVESIKTYHTEFVPFLRGT
Turning to B1, the binding entry in test [1] is on record as “binds”.

B2: HDA8-YFP (enzyme, UniProt Q94EJ2 1-377)
chain: MVTNRVDVFWHEGMLRHDAVEGVFDTGYDPGFLDVLEKHPENADRVRNMLSILRRGPIAPHVNWFTGLPAIVSELLMFHTSEYIEKLVEADKSGERCEIAAGTFMSPGSWEAALLAAGTTLSAMQHILDCHGKIAYALVRPPGHHSQPTQADGYCFLNNAALAVKLALNSGSCSRVAVIDIDVHYGNGTAEGFYTSDKVLTVSLHMNHGSWGSSHPQKGSIDELGEDVGLGYNLNVPLPNGTGDRGYEYAMNELVVPAVRRFGPDMVVLVVGQDSSAFDPNGRQSLTMNGYRRIGQIMRGVAEEHSHGRLLMVQEGGYHVTYAAYCLHAMLEGVLKIPEPHLSDPIAYYPEEEANAVAAVESIKTYHTEFVPFLRGT
Regarding B2, the binding entry in test [2] was “binds”.

B3: ARID1-GFP (protein, UniProt Q84JT7 1-562)
chain: MAGWSMVADEDAVDYSKTPKSLDANRSPESVNPESTGFEKKIKELISLFRPLLDSFLAEFCSADGFLPLPAMTGEGRTVDLFNLFLNVTHKGGFDAVSENGSWDEVVQESGLESYDSASAKLIYVKYLDAFGRWLNRVVAGDTDVSSVELSGISDALVARLNGFLSEVKKKYELRKGRPAKELGAELKWFISKTKRRYDKHHVGKESASNDAVKEFQGSKLAERRLEQIMILESVTQECSSPGKRKRECPLETLKWLSDVAKDPCDPSLGIVPDRSEWVSYGSEEPWKQLLLFRASRTNNDSACEKTWQKVQKMHPCLYDDSAGASYNLRERLSYEDYKRGKTGNGSDIGSSDEEDRPCALVGSKFQAKVPEWTGITPESDSKWLGTRIWPLTKEQTKANLLIERDRIGKGRQDPCGCHNPGSIECVKFHITAKRDKLKLELGPAFYMWCFDVMGECTLQYWTDLELKKIKSLMSSPPSLSPAFIHQAKMILPSKSRGKIVSYFYNVTLLQYRASQSRITPHDIDSDTDQIFLRATENENPAPEANTFQKPALLSPNKKRCR
Turning to B3, in test [3], the binding entry is on record as “binds”.
